{"sequences": {"note": "Amino acid sequences for entries named in this document (tags omitted).", "UniProt P28033": "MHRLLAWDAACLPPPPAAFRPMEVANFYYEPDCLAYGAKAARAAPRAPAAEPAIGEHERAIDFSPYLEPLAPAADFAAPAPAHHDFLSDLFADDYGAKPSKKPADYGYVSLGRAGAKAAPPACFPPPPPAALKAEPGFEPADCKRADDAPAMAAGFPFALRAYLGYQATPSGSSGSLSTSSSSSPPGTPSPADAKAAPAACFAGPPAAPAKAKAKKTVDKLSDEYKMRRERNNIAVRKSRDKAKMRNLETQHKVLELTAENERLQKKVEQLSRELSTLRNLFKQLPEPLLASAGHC"}, "source": "paper PMC7561136", "binders": {"B1": {"name": "Pellino 1 (Peli1) (protein, UniProt Q8C669 1-418)", "chain": "MFSPDQENHPSKAPVKYGELIVLGYNGSLPNGDRGRRKSRFALFKRPKANGVKPSTVHIACTPQAAKAISNKDQHSISYTLSRAQTVVVEYTHDSNTDMFQIGRSTESPIDFVVTDTVPGSQSNSDTQSVQSTISRFACRIICERSPPFTARIYAAGFDSSKNIFLGEKAAKWKTSDGQMDGLTTNGVLVMHPRNGFTEDSKPGIWREISVCGNVFSLRETRSAQQRGKMVEIETNQLQDGSLIDLCGATLLWRTAEGLSHTPTVKHLEALRQEINAARPQCPVGFNTLAFPSMKRKDVVDEKQPWVYLNCGHVHGYHNWGNKEERDGKDRECPMCRSVGPYVPLWLGCEAGFYVDAGPPTHAFSPCGHVCSEKTTAYWSQIPLPHGTHTFHAACPFCAHQLAGEQGYIRLIFQGPLD"}}, "target": "CCAAT/enhancer-binding protein (C/EBP)β (mouse (endogenous in BV2)) (UniProt P28033)", "experiment": "co-IP; lysates of BV2 cells (RIPA buffer) immunoprecipitated with control IgG or anti-C/EBPβ overnight at 4 °C, Protein A/G magnetic beads, immunoblot for Peli1; both proteins endogenous", "note": "These are yes or no findings as the source states them, for the method shown. In cells and extracts the contact can be indirect. Some binding calls cover weakened binding; strength is not graded here.", "data": [{"binder": "B1", "values": [{"measurement": "binding", "value": "binds"}]}]}
